Test results reported in publication doi:10.1101/2024.09.13.612963 (bioRxiv, 2024).
Residue numbers refer to the chain shown, from its start. Results are given in words; binding and its absence hold for the method and conditions named. Binding seen in cells or lysates may run through a third protein. Some entries that bind do so weakly or less than the wild type.

Experiments:
Assay in all cases: co-IP
[1] = molecular target: T1, TRAK2-mScarlet (wild type, truncated before the mitochondrial binding domain) (human) (UniProt O60296)
T1 sequence: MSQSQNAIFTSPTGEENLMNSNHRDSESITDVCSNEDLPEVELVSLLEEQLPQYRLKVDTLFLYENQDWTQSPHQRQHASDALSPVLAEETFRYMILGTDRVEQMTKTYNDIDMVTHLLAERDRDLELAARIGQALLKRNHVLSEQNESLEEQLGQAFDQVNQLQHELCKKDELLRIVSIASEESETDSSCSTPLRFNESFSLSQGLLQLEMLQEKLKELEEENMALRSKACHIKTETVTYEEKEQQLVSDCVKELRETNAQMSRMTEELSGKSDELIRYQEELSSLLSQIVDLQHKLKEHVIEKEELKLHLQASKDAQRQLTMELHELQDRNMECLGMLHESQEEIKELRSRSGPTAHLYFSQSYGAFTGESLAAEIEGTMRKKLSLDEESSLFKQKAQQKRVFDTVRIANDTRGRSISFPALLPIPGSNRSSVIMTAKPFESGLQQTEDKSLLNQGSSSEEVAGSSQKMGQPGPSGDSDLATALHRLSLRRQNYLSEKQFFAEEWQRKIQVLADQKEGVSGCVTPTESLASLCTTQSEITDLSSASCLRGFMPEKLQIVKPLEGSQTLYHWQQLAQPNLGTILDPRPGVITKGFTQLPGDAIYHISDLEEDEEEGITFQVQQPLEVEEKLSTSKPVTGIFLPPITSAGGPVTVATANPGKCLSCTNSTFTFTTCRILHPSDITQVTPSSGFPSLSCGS

[2] = molecular target: T2, TRAK2-mScarlet with alanine substitutions of F92 and M95 (DRH mutant) (human) (UniProt O60296)
T2 sequence: T1 sequence with F92A, M95A

[3] = molecular target: T3, TRAK2-mScarlet E242R (human) (UniProt O60296)
T3 sequence: T1 sequence with E242R

binding [1]: binds weakly
binding [2]: binds weakly
binding [3]: binds weakly
B1: kinesin-1 (KIF5B) (natural protein, human (endogenous in hTERT RPE-1), UniProt P33176 1-963, looked up)
chain: MADLAECNIKVMCRFRPLNESEVNRGDKYIAKFQGEDTVVIASKPYAFDRVFQSSTSQEQVYNDCAKKIVKDVLEGYNGTIFAYGQTSSGKTHTMEGKLHDPEGMGIIPRIVQDIFNYIYSMDENLEFHIKVSYFEIYLDKIRDLLDVSKTNLSVHEDKNRVPYVKGCTERFVCSPDEVMDTIDEGKSNRHVAVTNMNEHSSRSHSIFLINVKQENTQTEQKLSGKLYLVDLAGSEKVSKTGAEGAVLDEAKNINKSLSALGNVISALAEGSTYVPYRDSKMTRILQDSLGGNCRTTIVICCSPSSYNESETKSTLLFGQRAKTIKNTVCVNVELTAEQWKKKYEKEKEKNKILRNTIQWLENELNRWRNGETVPIDEQFDKEKANLEAFTVDKDITLTNDKPATAIGVIGNFTDAERRKCEEEIAKLYKQLDDKDEEINQQSQLVEKLKTQMLDQEELLASTRRDQDNMQAELNRLQAENDASKEEVKEVLQALEELAVNYDQKSQEVEDKTKEYELLSDELNQKSATLASIDAELQKLKEMTNHQKKRAAEMMASLLKDLAEIGIAVGNNDVKQPEGTGMIDEEFTVARLYISKMKSEVKTMVKRCKQLESTQTESNKKMEENEKELAACQLRISQHEAKIKSLTEYLQNVEQKKRQLEESVDALSEELVQLRAQEKVHEMEKEHLNKVQTANEVKQAVEQQIQSHRETHQKQISSLRDEVEAKAKLITDLQDQNQKMMLEQERLRVEHEKLKATDQEKSRKLHELTVMQDRREQARQDLKGLEETVAKELQTLHNLRKLFVQDLATRVKKSAEIDSDDTGGSAAQKQKISFLENNLEQLTKVHKQLVRDNADLRCELPKLEKRLRATAERVKALESALKEAKENASRDRKRYQQEVDRIKEAVRSKNMARRGHSAQIAKPIRPGQHPAASPTHPSAIRGGGAFVQNSQPVAVRGGGGKQV
